No constants are given. Whether binding was seen depends on the method and setting. In cells and extracts the contact can be indirect. Some entries that bind do so weakly or less than the wild type. For part of these data: Sequences can lack the tags named with a protein.
Assays:
[1] = molecular target: T1, GKN2 (myc-tagged) (human) (UniProt Q86XP6); test: co-IP; anti-myc immunoprecipitation from lysates of MGC cells expressing myc-GKN2 or SGC cells expressing myc-Hsc70; detected by blot with indicated antibodies
T1 sequence: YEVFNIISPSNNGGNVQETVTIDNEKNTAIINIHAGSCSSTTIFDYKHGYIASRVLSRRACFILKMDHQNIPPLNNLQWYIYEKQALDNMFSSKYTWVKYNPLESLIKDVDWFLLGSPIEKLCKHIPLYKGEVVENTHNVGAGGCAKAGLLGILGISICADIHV

Amino acid sequences for entries named in this document (tags omitted).
UniProt Q04206: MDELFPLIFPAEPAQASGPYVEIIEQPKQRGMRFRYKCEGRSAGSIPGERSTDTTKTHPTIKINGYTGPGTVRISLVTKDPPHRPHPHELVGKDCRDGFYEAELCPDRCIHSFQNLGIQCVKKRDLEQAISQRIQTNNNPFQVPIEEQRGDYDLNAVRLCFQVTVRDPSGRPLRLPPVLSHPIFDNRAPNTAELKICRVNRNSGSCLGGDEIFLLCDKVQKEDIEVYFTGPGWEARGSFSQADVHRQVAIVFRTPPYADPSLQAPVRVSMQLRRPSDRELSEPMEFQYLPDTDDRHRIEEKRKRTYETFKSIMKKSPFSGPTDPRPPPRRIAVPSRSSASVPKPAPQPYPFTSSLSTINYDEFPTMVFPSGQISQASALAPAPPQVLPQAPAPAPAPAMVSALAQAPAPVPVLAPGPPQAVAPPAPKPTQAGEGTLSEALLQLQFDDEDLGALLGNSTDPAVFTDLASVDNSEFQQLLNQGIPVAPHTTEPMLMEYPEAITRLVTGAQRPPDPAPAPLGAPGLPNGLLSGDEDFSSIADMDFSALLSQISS
UniProt P11142: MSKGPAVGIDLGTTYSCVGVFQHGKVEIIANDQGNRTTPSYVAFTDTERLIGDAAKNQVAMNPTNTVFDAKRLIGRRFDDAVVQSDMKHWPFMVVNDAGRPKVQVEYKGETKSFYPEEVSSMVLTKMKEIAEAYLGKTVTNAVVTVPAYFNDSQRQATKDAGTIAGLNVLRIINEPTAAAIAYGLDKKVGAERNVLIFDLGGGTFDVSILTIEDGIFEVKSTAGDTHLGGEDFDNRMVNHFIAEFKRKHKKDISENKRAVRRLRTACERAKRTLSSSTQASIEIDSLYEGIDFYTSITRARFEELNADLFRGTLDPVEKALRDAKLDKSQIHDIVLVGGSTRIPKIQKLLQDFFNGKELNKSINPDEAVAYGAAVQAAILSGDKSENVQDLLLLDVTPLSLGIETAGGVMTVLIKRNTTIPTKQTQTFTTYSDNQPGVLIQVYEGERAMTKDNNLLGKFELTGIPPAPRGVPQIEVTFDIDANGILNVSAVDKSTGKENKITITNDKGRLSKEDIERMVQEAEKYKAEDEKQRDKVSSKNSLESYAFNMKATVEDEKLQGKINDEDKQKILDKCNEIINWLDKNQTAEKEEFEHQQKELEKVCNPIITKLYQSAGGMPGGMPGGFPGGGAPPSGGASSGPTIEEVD

p65 = p65 (UniProt Q04206); test: co-IP; Co-IP assay of Hsc70 and p65 (Figure S5c); cells not given
myc-Hsc70 = myc-Hsc70 (UniProt P11142); test: co-IP; anti-myc immunoprecipitation from lysates of MGC cells expressing myc-GKN2 or SGC cells expressing myc-Hsc70; detected by blot with indicated antibodies

Molecule: Hsc70 (from UniProt P11142 1-646)
- binding [1]: binds

Molecule: Hsc70 in the co-immunoprecipitation with p65 (from UniProt P11142 1-646)
- binding (p65): binds

B1: GKN2 in SGC cells expressing myc-Hsc70 (protein, UniProt Q86XP6 21-184)
chain: T1 sequence
- binding (myc-Hsc70): binds

— paper PMC6683576
